## Library screen at single concentrations

Mtb cholesterol medium: 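Growth of Mycobacterium tuberculosis over 4 days (cholesterol / DPPC medium with tyloxapol); the read-out is not stated. Compounds at 500 µM. The record gives no direction; compounds that gave an IC50 in retests scored well above the rest, so higher reads as more growth inhibition. About 18,000 compounds were tested under these conditions; 5% (about 900) showed 50% or more at least once.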
Mtb glucose medium: 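Growth of Mycobacterium tuberculosis over 3 days (7H9 medium with glucose and tyloxapol); the read-out is not stated. Compounds at 500 µM. Direction is inferred from retests: higher values go with more growth inhibition. Of about 18,000 compounds tested this way, about 1,400 (7.9%) reached 50% or more in at least one test.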

Values are the deposited “Percent Effect”, in %.
How 0% and 100% were set is not recorded. Most values in the screen are low, and negative values occur.
This is an unselected part of the compounds tested.

| compound | Mtb cholesterol medium | Mtb glucose medium |
|---|---|---|
| `COC(C(=O)NCc1nc(C)c[nH]1)c1ccccc1` (centres undefined) | 9.283 | 22.5 |
| `COCCNC(=O)Nc1ccc2c(c1)OC(C)(C)O2` | 61.95 | 55.92 |
| `CC(C)(O)CCN1CCC(NC(=O)C2CCC2)CC1` | -5.402 | 1.017 |
| `C=C(C)CN1CCN(c2nccs2)CC1` | 12.41 | 15.39 |
| `COc1ccccc1CCNC(=O)CC1CCCO1` (centres undefined) | 26.41 | 49.32 |
| `CC(C(N)=O)N1CCN(c2ccccn2)CC1` (centres undefined) | 6.787 | 8.148 |
| `Cc1cnc(Cn2ccc(C)c(C#N)c2=O)o1` | -5.158 | 2.889 |
| `CN(Cc1cccnc1)C(=O)c1cc(Cl)c[nH]1` | 48.72 | 57.22 |
| `NC(=O)CCn1ccc(N)n1` | 5.586 | 13.98 |
| `O=C(NCC1CC1)c1cccc2nn[nH]c12` | 81.76 | 70.94 |
| `Cc1cccc(-n2nnnc2C(C)(C)N2CCCC2)c1` | -7.044 | 28.64 |
| `NC1CN(S(=O)(=O)c2ccc3c(c2)OCCO3)C1` | 28.45 | -4.421 |
| `N#CCCN1CCCN(c2ccc(C#N)cc2)CC1` | 48.56 | 59.39 |
| `CCN(C(=O)Cc1c[nH]c(=O)[nH]c1=O)[C@H]1COC[C@@H]1O` | 10.87 | 8.548 |
| `CC(C)C(=O)CNC(=O)C(C)c1cccnc1` (centres undefined) | 3.03 | 16.79 |
| `O=C(CC1CCCC1)NC1CCCc2[nH]c(=O)ccc21` (centres undefined) | -4.853 | 4.925 |
| `CC(C)(C)C(=O)N1CCC(NC(=O)C2CCOC2)CC1` (centres undefined) | 1.913 | 13.66 |
| `Cc1coc(Sc2ccc(C#N)cn2)n1` | -5.024 | 0.6888 |
| `NC(=O)NC(=O)CN1CCSCC1` | 2.702 | 8.052 |
| `O=C(OCCc1ccccc1F)C1CCS(=O)(=O)C1` (centres undefined) | 4.892 | 25.66 |
| `COCCCN1CCN(c2ccccc2OC)CC1` | 36.15 | 55.53 |
| `CCc1nn(C)c(CC)c1S(=O)(=O)N1CCCC1CN` (centres undefined) | 6.335 | 24.52 |
| `CNC(=O)c1ccc(CO)o1` | -0.9196 | -12.52 |
| `CCO[C@H]1CN(CC(=O)NCc2cccs2)C[C@@H]1O` | 10.08 | 19.25 |
| `CCOC(=O)c1ncc[nH]1` | -22.14 | -6.366 |
| `CC[S+]([O-])c1ccccc1C(=O)Nc1ccncc1` (centres undefined) | 14.71 | 13.15 |
| `CC(=O)N[C@@H](CC(C)C)C(=O)NCCc1csc(N)n1` | -8.888 | 0.1968 |
| `Cc1nccn1C1CCCNC1` (centres undefined) | -6.206 | 7.721 |
| `NC1(C(=O)N2CCC3(CC2)NCCc2nc[nH]c23)CC1` | -16.48 | -9.742 |
| `COc1ccccc1NC(=O)CCN1CCC(O)CC1` | -2.659 | 0.0727 |
| `CS(=O)(=O)C1CCN(C(=O)NCCn2cccc2)C1` (centres undefined) | -5.478 | -2.232 |
| `CC(=O)c1ccc(NCc2ncc(C)o2)nc1` | -3.875 | -5.879 |
| `CCN(CC)S(=O)(=O)NCCCN1CCCCCC1=O` | 4.466 | 9.498 |
| `CC(C)(C)c1nc(CN)no1` | -14.32 | -7.298 |
| `COCCC1(C(=O)N2CC(N(C)C)C2)CCCC1` | 9.64 | 4.07 |
| `CCc1cc(C(=O)NCC2CCCNC2)cc(=O)[nH]1` (centres undefined) | -9.997 | -2.995 |
| `O=C1CCC(Nc2nc(-c3ccccc3)ns2)CN1` (centres undefined) | 50.83 | 43.92 |
| `COCCNC1CCOC1` (centres undefined) | -5.284 | -1.287 |
| `CN(C)C(=O)C1CCN(C(=O)Nc2ccccc2)CC1` | 11.8 | 12.23 |
| `N#Cc1ccccc1C(=O)N1CCOCC(O)C1` (centres undefined) | -5.654 | 13.31 |
| `OCC1COCCN(Cc2ccc(C(F)(F)F)nc2)C1` (centres undefined) | 16.78 | 7.948 |
| `CN(Cc1cnn(C)c1)C(=O)C1CCC(=O)NC1` (centres undefined) | -3.566 | 2.976 |
| `CCS(=O)(=O)CCn1nnc(-c2ccc(Br)cc2)n1` | 33.36 | 49.11 |
| `CC(C)(C)OC(=O)n1cc(N)cn1` | 7.343 | 8.137 |
| `CCc1ccc(CN(C)C(=O)CCNC(C)=O)nc1` | -16.65 | -5.665 |
| `Cc1cc(C(O)C(C)C)nn1C` (centres undefined) | 3.245 | 2.387 |
| `Cn1ccnc1C(O)C1CCNCC1` (centres undefined) | 10.83 | 5.903 |
| `CCC(C)(C)C(=O)NCC(C)(C)N1CC[S+]([O-])CC1` | -11.12 | -8.321 |
| `CCc1ccc(C(=O)NC2CCS(=O)(=O)C2)o1` (centres undefined) | 14.62 | 20.2 |
| `COCC(=O)N1CCN(C(=O)c2ccccc2O)CC1` | 0.9338 | -2.722 |
| `NCc1nc(-c2ccc(F)cc2)c[nH]1` | 31.1 | 54.16 |
| `COC(=O)CCN(C)CC(=O)Nc1cc(C)ccn1` | 13.29 | -0.9897 |
| `Cc1ncc(S(C)(=O)=O)c(NCc2snnc2C)n1` | -13.15 | 10.5 |
| `OCCCc1cccc(NCc2csnn2)c1` | 12.81 | 34.38 |
| `Cc1cc(F)ccc1NC(=O)NCC1(O)CCCNC1` (centres undefined) | 2.934 | 8.823 |
| `CCCc1cc(N2CCNC(=O)C2)n2nccc2n1` | 0.8525 | 19.76 |
| `CCCNC(=O)Cn1nc2n(c1=O)CCCCC2` | -27.44 | -11.01 |
| `COc1cc(CNC(=O)C(C)OCC(C)C)ccn1` (centres undefined) | 50.65 | 52.14 |
| `CNCC(=O)Nc1cc(F)cc(F)c1` | 3.054 | 20.29 |
| `COc1ccccc1OCC(=O)N[C@@H]1CCOC[C@H]1O` | 8.916 | 12.41 |
| `Cc1cc(NC(=O)C2CCN(S(C)(=O)=O)CC2)n(C)n1` | 2.539 | 12.38 |
| `CC(C)c1cccc(CN[C@H](CO)C(C)C)n1` | 26.19 | 57.7 |
| `OCCN1CCN(c2ccc(CO)nn2)CC1` | -15.32 | -11.86 |
| `Cc1cc(C)cc(NC(=O)N[C@@H]2CNCC[C@H]2O)c1` | 15.66 | 30.8 |
| `CC(CCS(C)(=O)=O)NC(=O)N1CCC=C(Br)C1` (centres undefined) | -2.257 | 9.065 |
| `NCCNC(=O)CCOc1ccccc1` | 6.373 | 4.463 |
| `CCN1CCN(c2ccccc2O)CC1` | 67.63 | 60.37 |
| `CC1(C)CNC1c1cccnc1` (centres undefined) | 24.08 | 16.77 |
| `CC(C)OC1CCCNC1` (centres undefined) | -17.16 | -5.241 |
| `COCc1ccccc1CNC(=O)NC(C)C` | -4.449 | -1.532 |
| `CSCCOc1ccccc1CC(N)=O` | -0.2745 | 14.31 |
| `Cc1cc(NC(=O)CN(C)C)ccc1OCCO` | 5.027 | 19.64 |
| `Cc1noc(C)c1CNC1CCN(C)CC1` | -5.875 | -4.08 |
| `CC(C)(C)SCC(=O)Nc1ccc(CS(N)(=O)=O)cc1` | 6.868 | 19.07 |
| `COc1ccc(CNC(C)(CO)CO)c(Cl)c1` | -8.997 | -0.04043 |
| `CN1C(=O)CC(NC(=O)Nc2ccc(F)cn2)C1=O` (centres undefined) | -8.117 | 1.336 |
| `NCCOc1ncc(C(F)(F)F)cc1Cl` | 31.97 | 49.15 |

The first 4 entries again:

| compound | Mtb cholesterol medium | Mtb glucose medium |
|---|---|---|
| `COC(C(=O)NCc1nc(C)c[nH]1)c1ccccc1` (centres undefined) | 9.283 | 22.5 |
| `COCCNC(=O)Nc1ccc2c(c1)OC(C)(C)O2` | 61.95 | 55.92 |
| `CC(C)(O)CCN1CCC(NC(=O)C2CCC2)CC1` | -5.402 | 1.017 |
| `C=C(C)CN1CCN(c2nccs2)CC1` | 12.41 | 15.39 |

From ChEMBL document CHEMBL3988442, “University of Dundee, Small-Polar-MMV Screening Library” (2021).